Data on 14 molecules can be found in publication PMC4205851, “Protein-tyrosine phosphorylation interaction network in Bacillus subtilis reveals new substrates, kinase activators and kinase cross-talk” (Frontiers in Microbiology, 2014).

The target in one experiment is T1, SpoIIE (B. subtilis 168) (UniProt P37475).
T1 sequence: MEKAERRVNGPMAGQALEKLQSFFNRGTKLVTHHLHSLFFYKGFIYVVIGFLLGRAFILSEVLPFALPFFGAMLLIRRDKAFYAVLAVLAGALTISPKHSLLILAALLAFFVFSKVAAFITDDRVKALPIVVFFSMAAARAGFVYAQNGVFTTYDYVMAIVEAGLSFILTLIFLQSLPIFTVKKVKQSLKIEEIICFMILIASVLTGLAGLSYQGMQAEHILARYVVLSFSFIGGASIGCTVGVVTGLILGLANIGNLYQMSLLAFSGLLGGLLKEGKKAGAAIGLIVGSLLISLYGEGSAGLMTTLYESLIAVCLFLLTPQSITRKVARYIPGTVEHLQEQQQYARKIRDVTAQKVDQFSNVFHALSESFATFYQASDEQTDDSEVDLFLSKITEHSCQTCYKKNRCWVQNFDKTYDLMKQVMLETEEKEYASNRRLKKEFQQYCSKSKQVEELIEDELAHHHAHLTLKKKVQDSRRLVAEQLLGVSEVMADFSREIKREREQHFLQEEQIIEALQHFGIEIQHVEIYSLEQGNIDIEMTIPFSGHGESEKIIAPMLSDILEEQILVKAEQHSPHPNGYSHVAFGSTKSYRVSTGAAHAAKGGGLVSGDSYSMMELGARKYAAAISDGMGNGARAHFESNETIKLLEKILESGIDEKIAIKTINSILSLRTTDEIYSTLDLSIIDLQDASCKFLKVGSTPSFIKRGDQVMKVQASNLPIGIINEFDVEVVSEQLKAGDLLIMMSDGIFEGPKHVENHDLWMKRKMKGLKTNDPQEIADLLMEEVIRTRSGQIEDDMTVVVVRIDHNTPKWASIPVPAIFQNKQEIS
Kind of experiment: two-hybrid; Gal4 system in yeast PJ69-4A/PJ69-4α: BD baits (pGBDU-C1) mated with the AD-fusion B. subtilis genomic library (pGAD) or with AD fusions; growth on SC-LUH with 0.5 mM 3-aminotriazole and on SC-LUA at 30°C; hits retested in binary specificity matings.

A further experiment deals with T2, YabT (B. subtilis 168) (UniProt P37562).
T2 sequence: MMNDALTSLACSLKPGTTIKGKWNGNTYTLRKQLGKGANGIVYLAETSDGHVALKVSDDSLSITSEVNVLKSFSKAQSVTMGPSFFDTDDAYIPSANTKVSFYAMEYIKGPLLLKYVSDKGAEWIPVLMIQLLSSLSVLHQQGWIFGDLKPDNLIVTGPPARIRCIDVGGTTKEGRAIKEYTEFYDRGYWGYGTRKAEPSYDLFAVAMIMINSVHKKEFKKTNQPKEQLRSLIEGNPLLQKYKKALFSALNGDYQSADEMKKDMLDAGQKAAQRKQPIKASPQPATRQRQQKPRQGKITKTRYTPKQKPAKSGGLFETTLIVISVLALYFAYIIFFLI
The description is as above.

A further experiment concerns the target TkmA (B. subtilis 168). The description is as above.
Another experiment has as its target TkmB (B. subtilis 168). Described as above.
Another experiment has as its target PtkA (B. subtilis 168). The description is as above.
The target of experiment [1] is PtkA (purified) (B. subtilis 168). The experiment is described as follows: far-Western; PtkA, MinC and TkmA separated by 12% SDS-PAGE, transferred to nitrocellulose and renatured; probed with Strep-tagged MinD labelled with Strep-Tactin-HRP in TBS-T (50 mM Tris pH 7.5, 150 mM NaCl, 0.05% Tween 20) with 1% BSA; AEC staining; both purified.
Experiment [2] addresses TkmA (purified) (B. subtilis 168). Described as above.
The next experiment addresses PtkB (B. subtilis 168). The experiment is described as follows: two-hybrid; Gal4 system in yeast PJ69-4A/PJ69-4α: BD baits (pGBDU-C1) mated with the AD-fusion B. subtilis genomic library (pGAD) or with AD fusions; growth on SC-LUH with 0.5 mM 3-aminotriazole and on SC-LUA at 30°C; hits retested in binary specificity matings.

Results are given in words; binding and its absence hold for the method and conditions named. For part of these data: Binding calls can cover weak binding; strength is not graded here. For part of these data: Where a sequence is shown, tags or fusion partners need not be part of it.

Take SbcE (B. subtilis): the binding entry with SpoIIE (B. subtilis 168) and with YabT (B. subtilis 168) was “binds” in each case.
Take YkcC (B. subtilis): the binding entry in the experiment with SpoIIE (B. subtilis 168) and with YabT (B. subtilis 168) was “binds” throughout.
Turning to XhlA (B. subtilis), the binding result with SpoIIE (B. subtilis 168) and with YabT (B. subtilis 168) was “binds” each time.
As to “AD-RacA fusion (aa 81-194/194) (B. subtilis) (domain or fragment)”, the binding result with SpoIIE (B. subtilis 168) and with YabT (B. subtilis 168) was “binds” in each case.
On to PtkB (B. subtilis 168) (enzyme), for which the binding result in the experiment with YabT (B. subtilis 168) is “binds”.

B1: YabT (enzyme, UniProt P37562 1-338)
chain: T2 sequence
As to B1, in the experiment with TkmA (B. subtilis 168), the binding result is “binds”.

B2: YvcJ (protein, UniProt O06973 1-295)
chain: MSVSESHDIQLVIITGMSGAGKTVAIQSFEDLGYFCVDNLPPSLLPKFLELMKESNSKMSKVALVMDLRGREFFDRLIEALDEMAENPWITPRILFLDAKDSILVTRYKETRRSHPLAATGLPLEGIALERELLEELKGRSQIIYDTSDMKPRDLREKIVKHFATNQGETFTVNVMSFGFKYGIPIDADLVFDVRFLPNPYYIESMRPLTGKDKEVSSYVMKWNETQKFNEKLIDLLSFMLPSYKREGKSQVVIAIGCTGGQHRSVTLAENLADYFKKDYYTHVTHRDIEKRSRK
B2: the binding entry with TkmB (B. subtilis 168) is given as “binds”.

B3: C-terminal domain of MinD II (aa89-268) (domain or fragment, UniProt Q01464 89-268)
chain: AAQTSDKTAVAPEQIKNMVQELKQEFDYVIIDCPAGIEQGYKNAVSGADKAIVVTTPEISAVRDADRIIGLLEQEENIEPPRLVVNRIRNHLMKNGDTMDIDEIVQHLSIDLLGIVADDDEVIKASNHGEPIAMDPKNRASIAYRNIARRILGESVPLQVLEEQNKGMMAKIKSFFGVRS
For the molecule B3, the binding entry with PtkA (B. subtilis 168) is “binds”.

B4: Strep-tagged MinD (protein, UniProt Q01464 1-268)
chain: MGEAIVITSGKGGVGKTTTSANLGTALAILGKRVCLVDTDIGLRNLDVVMGLENRIIYDLVDVVEGRCKMHQALVKDKRFDDLLYLMPAAQTSDKTAVAPEQIKNMVQELKQEFDYVIIDCPAGIEQGYKNAVSGADKAIVVTTPEISAVRDADRIIGLLEQEENIEPPRLVVNRIRNHLMKNGDTMDIDEIVQHLSIDLLGIVADDDEVIKASNHGEPIAMDPKNRASIAYRNIARRILGESVPLQVLEEQNKGMMAKIKSFFGVRS
For the molecule B4, the binding entry in experiment [1] was “binds”; in experiment [2], “no binding”.

B5: MinD (protein, UniProt Q01464 1-268)
chain: B4 chain
With B5, the binding result with PtkA (B. subtilis 168) was “binds”; in the experiment with PtkB (B. subtilis 168), “binds”; with TkmA (B. subtilis 168) it was “no binding”.

B6: C-terminal domain of MinD I (aa135-268) (domain or fragment, UniProt Q01464 135-268)
chain: GADKAIVVTTPEISAVRDADRIIGLLEQEENIEPPRLVVNRIRNHLMKNGDTMDIDEIVQHLSIDLLGIVADDDEVIKASNHGEPIAMDPKNRASIAYRNIARRILGESVPLQVLEEQNKGMMAKIKSFFGVRS
As for B6, in the experiment with PtkA (B. subtilis 168), the binding result is given as “binds”.

B7: SalA (protein, UniProt P50863 1-352)
chain: MIREDEVRKLVGEMREPFLQRPLGELDAVKEIKIKPEKRHISVKVALAKTGTAEQMQIQQEIVNVLKGAGAETVGLRFEELPEETVAKFRAPSAEKKTLLNMDNPPVFLAVASGKGGVGKSTVSVNLAISLARLGKKVGLIDADIYGFSVPDMMGITVRPTIEGEKLLPVERFGVKVMSMGFFVEENAPVVWRGPMLGKMLNNFFHEVEWGEVDYIVLDLPPGTGDVALDVHTMLPSCKEIIVSTPHPTAAFVAARAGSMAIKTDHEVVGVIENMAYYESAKTGEREYVFGKGGGDKLAEELNVPLLGRIPLKQPDWDKDQFAPSVYDENHPIGEIYQDIAKKIDAKMSVQV
As to B7, the binding result in the experiment with PtkA (B. subtilis 168) is “binds”.

B8: PtpZ (enzyme, UniProt P96717 1-254)
chain: MIDIHCHILPAMDDGAGDSADSIEMARAAVRQGIRTIIATPHHNNGVYKNEPAAVREAADQLNKRLIKEDIPLHVLPGQEIRIYGEVEQDLAKRQLLSLNDTKYILIEFPFDHVPRYAEQLFYDLQLKGYIPVIAHPERNREIRENPSLLYHLVEKGAASQITSGSLAGIFGKQLKAFSLRLVEANLIHFVASDAHNVKTRNFHTQEALYVLEKEFGSELPYMLTENAELLLRNQTIFRQPPQPVKRRKLFGFF
Take B8: the binding entry in the experiment with TkmA (B. subtilis 168) is given as “binds”.

B9: RsbT (enzyme, UniProt P42411 1-133)
chain: MNDQSCVRIMTEWDIVAARQLGRNVAKELGFGTVDQARITTAISELARNIYLYAGKGQIGIEQVADRGKKGLKIIAEDQGPGIPDIRKVMEDGFSTSGGLGAGLPGVKRLMDEFSLNSVAGEGTEIQAIKWLR
Regarding B9, the binding result with PtkA (B. subtilis 168) is given as “binds”.
